According to publication PMC8413462:
No constants are given. Whether binding was seen depends on the method and setting. Some binding calls cover weakened binding; strength is not graded here. Tags and fused reporters may be left off the sequences shown.

Target: T1, Nop5_(2)–Fib2 complex from Pyrococcus furiosus (P. furiosus) (UniProt Q8U4M1+Q8U4M2)
T1 sequence 1: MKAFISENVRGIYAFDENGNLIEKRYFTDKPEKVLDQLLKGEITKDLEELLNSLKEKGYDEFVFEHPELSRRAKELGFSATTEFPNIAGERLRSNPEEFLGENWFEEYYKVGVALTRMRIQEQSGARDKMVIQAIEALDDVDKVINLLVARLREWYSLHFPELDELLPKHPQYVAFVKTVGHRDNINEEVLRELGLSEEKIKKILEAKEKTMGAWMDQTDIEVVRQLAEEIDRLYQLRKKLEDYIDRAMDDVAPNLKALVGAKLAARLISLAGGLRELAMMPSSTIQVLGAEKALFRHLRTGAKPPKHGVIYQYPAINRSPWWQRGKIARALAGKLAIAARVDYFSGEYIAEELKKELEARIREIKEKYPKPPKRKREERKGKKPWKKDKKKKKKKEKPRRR
T1 sequence 2: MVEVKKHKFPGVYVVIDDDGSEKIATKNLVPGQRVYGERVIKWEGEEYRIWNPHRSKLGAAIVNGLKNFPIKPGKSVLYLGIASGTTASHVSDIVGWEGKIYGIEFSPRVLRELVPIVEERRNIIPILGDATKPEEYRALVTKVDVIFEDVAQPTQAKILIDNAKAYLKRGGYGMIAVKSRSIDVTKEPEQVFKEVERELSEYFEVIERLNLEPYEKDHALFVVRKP
Assay: SEC; chimeric RNP: Nop5_(2)–Fib2, Snu13 and yeast guide RNA snR51 mixed 1:2:1, incubated 15 min; Superdex S200 Increase 10/300 GL; 20 mM sodium phosphate, 500 mM NaCl, pH 6.6; the guide RNA is part of the particle; both purified

binding: binds
B1: Snu13 from Saccharomyces cerevisiae (protein, UniProt P39990 1-126)
chain: MSAPNPKAFPLADAALTQQILDVVQQAANLRQLKKGANEATKTLNRGISEFIIMAADCEPIEILLHLPLLCEDKNVPYVFVPSRVALGRACGVSRPVIAASITTNDASAIKTQIYAVKDKIETLLI
